According to the supplement of paper PMC3682954:
Where “and” joins values, the source holds several entries; their conditions need not be identical. Identical values can stand only once. Counter-ions that a name gives are not always drawn. ± gives the standard deviation of the averaged measurements. The list shows a part of the results. Single values are uncertain, as repeats are few or missing.

System: RAW 264.7
Experiment: HMGB1-induced TNF-alpha production relative to HMGB1-stimulated control; higher = more TNF-alpha secretion (less inhibition)
Conditions: stimulus: HMGB1 5 ug/ml, 18 h
[1] = compound concentration: 1 ug/ml

Row | Compound | HMGB1-induced TNF-alpha production (compound concentration: 3 uM) | HMGB1-induced TNF-alpha production [1] [%]
1 | Clc1ccc(N2CCN(Cc3c[nH]c4ncccc34)CC2)cc1 [L-745,870 hydrochloride] | 80.2% | –
2 | CCn1cnc2c(Nc3cccc(Cl)c3)nc(N[C@@H]3CCCC[C@@H]3N)nc21 | 76.5% | –
3 | NCCCNCCSP(=O)(O)O | 93.8% | –
4 | NCCCNCCSP(=O)(O)O [Amifostine] | 90.7 ± 12% | –
5 | CC1OC(OC2/C=C/C=C/C=C/C=C/CC/C=C/C=C/[C@H](C)[C@@H](O)[C@@H](C)[C@H](C)OC(=O)CC(O)CC(O)CC(O)CCC(O)C(O)C[C@]3(O)CC(O)C(C(=O)O)C(C2)O3)C(O)C(N)C1O (stereo partly drawn) [Nystatine] | 59.7% | –
6 | O=[N+]([O-])c1ccc(O)c([N+](=O)[O-])c1 | 78.6% | –
7 | CN1CC[C@]2(c3cccc(O)c3)Cc3nc4ccccc4cc3C[C@H]2C1 | 52.5% | –
8 | O=S1(=O)N(CCN2CC=C(c3c[nH]c4cc(F)ccc34)CC2)c2cccc3c2N1CCC3 | 114% | –
9 | NCCC(O)C(=O)NC1CC(N)C(OC2OC(CN)C(O)[C@H](O)[C@@H]2N)[C@H](OC2O[C@H](CO)[C@@H](O)[C@@H]2O)[C@@H]1O (stereo partly drawn) [Butirosin disulfate salt] | 98.5% | –
10 | NCCc1c[nH]c2ccc(C(N)=O)cc12 [5-Carboxamidotryptamine maleate] | 81.4% | –
11 | C=C1[C@@H](C)[C@H]2[C@H](Cc3ccccc3)NC(=O)[C@]23OC(=O)/C=C/C(=O)CCC[C@@H](C)C/C=C/[C@H]3[C@@H]1O | 79.8% | –
12 | Nc1ccc([As](=O)(O)O)cc1 | 96% | –
13 | CN[C@@H](Cc1c[nH]c2ccccc12)C(=O)O [L-abrine] | – | 73.7
14 | CC(=O)Nc1cc([As](=O)(O)O)ccc1O | 88.2 ± 12% | –
15 | Cc1cc2c(C(C)C)c(O)c(O)c(C=O)c2c(O)c1-c1c(C)cc2c(C(C)C)c(O)c(O)c(C=O)c2c1O | 204% | 66.4
16 | Cc1cc2c(C(C)C)c(O)c(O)c(C=O)c2c(O)c1-c1c(C)cc2c(C(C)C)c(O)c(O)c(C=O)c2c1O [Gossypol] | 321% | –
17 | CCCN1CC[C@@H]2c3cc(O)ccc3CC[C@@H]21 (racemic) [cis(+/-)-8-OH-PBZI hydrobromide] | 93.1% | –
18 | O=c1[nH]c2ccccc2n1C1CCN(CCCC(c2ccc(F)cc2)c2ccc(F)cc2)CC1 | 78.1% | –
19 | O=c1[nH]c2ccccc2n1C1CCN(CCCC(c2ccc(F)cc2)c2ccc(F)cc2)CC1 [Pimozide] | 62.9 ± 11% | –
20 | CC(=O)[O][Hg][c]1ccccc1 | -1.4 ± 1.3% | –
21 | C=CCN1CC[C@]23CCCC[C@H]2[C@H]1Cc1ccc(O)cc13 [Levallorphan tartrate] | 107% | –
22 | C=CCN1CC[C@]23CCCC[C@H]2[C@H]1Cc1ccc(O)cc13 [Levallorphan] | 119% | –
23 | CC(=O)NCCc1c[nH]c2ccccc12 [N-Acetyltryptamine] | 86.4% | –
24 | C[C@]12CC[C@@H](O)C[C@H]1CC[C@@H]1[C@@H]2CC[C@]2(C)C(=O)CC[C@@H]12 [3-alpha-Hydroxy-5-beta-androstan-17-one] | 130% | –
25 | c1cc2c(cc1[C@H]1OC[C@H]3[C@@H]1CO[C@H]3c1ccc3c(c1)OCO3)OCO2 [(-)-Asarinin] | – | 55.2

Row | Compound | HMGB1-induced TNF-alpha production (compound concentration: 3 uM) | HMGB1-induced TNF-alpha production [1] [%]
26 | O=C(c1ccccc1)N1CC2CC(C1)c1cccc(=O)n1C2 (stereo not drawn) | – | 79.8
27 | C[C@@H]1O[C@@H](O[C@@H]2C=C3CC[C@@H]4[C@H](CC[C@]5(C)[C@@H](c6ccc(=O)oc6)CC[C@]45O)[C@@]3(C)CC2)[C@H](O)[C@H](O)[C@H]1O [proscillaridin A] | – | 70.1
28 | C[C@@H]1O[C@@H](O[C@@H]2C=C3CC[C@@H]4[C@H](CC[C@]5(C)[C@@H](c6ccc(=O)oc6)CC[C@]45O)[C@@]3(C)CC2)[C@H](O)[C@H](O)[C@H]1O [Proscillaridin A] | 97% | –
29 | C[C@@H]1O[C@@H](O[C@@H]2C=C3CC[C@@H]4[C@H](CC[C@]5(C)[C@@H](c6ccc(=O)oc6)CC[C@]45O)[C@@]3(C)CC2)[C@H](O)[C@H](O)[C@H]1O | 91.9% | –
30 | CN(C)C(=O)Oc1ccc[n+](C)c1 [Pyridostigmine bromide] | 97% | –
31 | CN(C)C(=O)Oc1ccc[n+](C)c1 | 86.5% | –
32 | C#CCN(C)[C@H](C)Cc1ccccc1 [Benzeneethanamine, N,Alpha-dimethyl-N-2-propynyl-(R)- [CAS]] | 102% | –
33 | C#CCN(C)[C@H](C)Cc1ccccc1 | 80% | –
34 | C#CCN(C)[C@H](C)Cc1ccccc1 [Selegiline hydrochloride] | 84.4% | –
35 | C=C[C@H]1CN2CC[C@H]1C[C@H]2c1[nH]c2ccccc2c1CCO [Cinchonamine] | – | 76.7
36 | CN(C)C(=O)Oc1cccc([N+](C)(C)C)c1 [Neostigmine] | 126% | –
37 | CN(C)C(=O)Oc1cccc([N+](C)(C)C)c1 [Neostigmine bromide] | 94.5 ± 32% | –
38 | CN(C)C(=O)Oc1cccc([N+](C)(C)C)c1 | 92.4% | –
39 | CN1[C@H]2C[C@H](OC(=O)[C@H](CO)c3ccccc3)C[C@@H]1[C@@H](O)C2 | 86.6% | –
40 | CCN(CC)CCOC(=O)C(O)(c1ccccc1)c1ccccc1 | 115% | –
41 | CNC(=O)Oc1ccc2c(c1)[C@]1(C)CCN(C)[C@@H]1N2C [Eserine] | – | 63.6
42 | CNC(=O)Oc1ccc2c(c1)[C@]1(C)CCN(C)[C@@H]1N2C [Eserine sulfate, physostigmine sulfate] | 118% | –
43 | CNC(=O)Oc1ccc2c(c1)[C@]1(C)CCN(C)[C@@H]1N2C [Physostigmine] | 110 ± 10% | –
44 | CNC(=O)Oc1ccc2c(c1)[C@]1(C)CCN(C)[C@@H]1N2C | 92.9% | –
45 | CNC(=O)Oc1ccc2c(c1)[C@]1(C)CCN(C)[C@@H]1N2C [(-)-Physostigmine] | 79.2% | –
46 | CCN(CCCl)Cc1ccccc1Br [DSP-4 hydrochloride] | 89.2% | –
47 | COc1ccc(C(CN(C)C)C2(O)CCCCC2)cc1 (stereo not drawn) | 100% and 81.1% | –
48 | COc1ccc(C(CN(C)C)C2(O)CCCCC2)cc1 (stereo not drawn) [Venlafaxine hydrochloride] | 88% | –
49 | COc1ccc(C(CN(C)C)C2(O)CCCCC2)cc1 (stereo not drawn) [Venlafaxine] | 103 ± 21% | –
50 | CN1CCc2cc3c(cc2C1O)OCO3 (stereo not drawn) | 82% | –

Row | Compound | HMGB1-induced TNF-alpha production (compound concentration: 3 uM) | HMGB1-induced TNF-alpha production [1] [%]
51 | CN1CCc2cc3c(cc2C1O)OCO3 (stereo not drawn) [Hydrastinine hydrochloride] | 82.9% | 84.4
52 | CCNCC(O)c1cccc(O)c1 (stereo not drawn) [Etilefrine hydrochloride] | 89.7% | –
53 | O=c1c(O)c(-c2ccc(O)c(O)c2)oc2c(O)c(O)cc(O)c12 [Gossypetin] | – | 73.9
54 | CCCCC(C#N)(Cn1cncn1)c1ccc(Cl)cc1 (stereo not drawn) [Myclobutanil] | 67.7% | –
55 | CC(N)c1cccc(Cl)c1Cl (racemic) [(±)-2,3-Dichloro-alpha-methylbenzylamine hydrochloride] | 102% | –
56 | COc1ccc(C(=O)c2c(C)n(CCN3CCOCC3)c3ccccc23)cc1 [Pravadoline] | 108% | –
57 | COc1ccc2[nH]cc(C3=CCNCC3)c2c1 | 93% | –
58 | CC(C)(N)Cc1ccccc1 [Phentermine hydrochloride] | 105% | –
59 | CC(C)(N)Cc1ccccc1 | 81.2% | –
60 | CN(CC[C@H](N)CC(=O)N[C@H]1C=C[C@H](n2ccc(N)nc2=O)O[C@@H]1C(=O)O)C(=N)N | 110% | –
61 | C[C@]12CCC(=O)C=C1CC[C@@H]1[C@@H]2CC[C@@]2(C)[C@H]1CC[C@]2(C)O [Methyltestosterone] | 100% | –
62 | CN1[C@@H]2CC[C@H]1C[C@@H](OC(=O)C(CO)c1ccccc1)C2 (stereo partly drawn) [Atropine] | 107% | 94.8
63 | CN1[C@@H]2CC[C@H]1C[C@@H](OC(=O)C(CO)c1ccccc1)C2 (stereo partly drawn) | 103% | –
64 | CN1[C@@H]2CC[C@H]1C[C@@H](OC(=O)C(CO)c1ccccc1)C2 (stereo partly drawn) [Atropine sulfate monohydrate] | 117% | –
65 | CN1[C@@H]2CC[C@H]1C[C@@H](OC(=O)C(CO)c1ccccc1)C2 (stereo partly drawn) [Atropine sulfate] | 91.5% | –
66 | c1ccc(CCCN2CCN(CCOC(c3ccccc3)c3ccccc3)CC2)cc1 | 71.9% | –
67 | CC(C)C[C@H]1C(=O)N2CCC[C@H]2[C@]2(O)O[C@](NC(=O)[C@@H]3C=C4c5cccc6[nH]c(Br)c(c56)C[C@H]4N(C)C3)(C(C)C)C(=O)N12 [Bromocryptine mesylate] | 52.5% | –
68 | CC(C)C[C@H]1C(=O)N2CCC[C@H]2[C@]2(O)O[C@](NC(=O)[C@@H]3C=C4c5cccc6[nH]c(Br)c(c56)C[C@H]4N(C)C3)(C(C)C)C(=O)N12 [Bromocriptine] | 87% | –
69 | CC(C)C[C@H]1C(=O)N2CCC[C@H]2[C@]2(O)O[C@](NC(=O)[C@@H]3C=C4c5cccc6[nH]c(Br)c(c56)C[C@H]4N(C)C3)(C(C)C)C(=O)N12 | 79.4% | –
70 | CC(C)C[C@H]1C(=O)N2CCC[C@H]2[C@]2(O)O[C@](NC(=O)[C@@H]3C=C4c5cccc6[nH]c(Br)c(c56)C[C@H]4N(C)C3)(C(C)C)C(=O)N12 [(+)-Bromocriptine methanesulfonate] | 83.4% | –
71 | C=CCN1CC[C@]23c4c5ccc(O)c4O[C@H]2/C(=N/N=C2\CC[C@@]4(O)[C@H]6Cc7ccc(O)c8c7[C@@]4(CCN6CC=C)[C@H]2O8)CC[C@@]3(O)[C@H]1C5 [Naloxonazine dihydrochloride] | 102% | –
72 | C=CCN1CC[C@]23c4c5ccc(O)c4O[C@H]2/C(=N/N=C2\CC[C@@]4(O)[C@H]6Cc7ccc(O)c8c7[C@@]4(CCN6CC=C)[C@H]2O8)CC[C@@]3(O)[C@H]1C5 [Naloxonazine] | 83% | –
73 | COc1cc(C(O)CN)ccc1O (racemic) [(±)-Normetanephrine hydrochloride] | 121% | –
74 | CCC1=C[C@H]2CN3CCc4c([nH]c5ccccc45)[C@](C(=O)OC)(C2)[C@H]13 [Catharanthine] | 88.5% | –
75 | O=C(Cc1ccc(Cl)c(Cl)c1)N1CCCCC1CN1CCCC1 (stereo not drawn) | 104% | –
